# Test results from the supplement of paper PMC11006884.
# By UniProt entry, the sequences of proteins in these tests, tags left out. Where a name states a change or a piece, a line headed by the entry shows the natural chain unless it says otherwise.
# UniProt Q9BRS8: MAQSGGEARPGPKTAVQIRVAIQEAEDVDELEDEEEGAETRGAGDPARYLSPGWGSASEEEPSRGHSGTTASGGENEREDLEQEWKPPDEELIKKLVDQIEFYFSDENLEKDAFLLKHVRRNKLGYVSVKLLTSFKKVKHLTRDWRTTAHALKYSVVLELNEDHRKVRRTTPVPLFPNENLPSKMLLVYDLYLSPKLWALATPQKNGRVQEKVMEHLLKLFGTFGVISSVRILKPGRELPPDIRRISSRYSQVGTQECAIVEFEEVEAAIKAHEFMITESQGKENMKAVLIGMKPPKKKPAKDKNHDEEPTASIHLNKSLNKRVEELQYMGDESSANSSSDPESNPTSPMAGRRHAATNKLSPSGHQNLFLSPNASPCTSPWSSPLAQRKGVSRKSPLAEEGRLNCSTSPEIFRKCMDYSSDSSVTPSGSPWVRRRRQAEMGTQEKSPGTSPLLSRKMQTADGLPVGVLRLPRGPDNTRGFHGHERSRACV
# UniProt Q9BVP2: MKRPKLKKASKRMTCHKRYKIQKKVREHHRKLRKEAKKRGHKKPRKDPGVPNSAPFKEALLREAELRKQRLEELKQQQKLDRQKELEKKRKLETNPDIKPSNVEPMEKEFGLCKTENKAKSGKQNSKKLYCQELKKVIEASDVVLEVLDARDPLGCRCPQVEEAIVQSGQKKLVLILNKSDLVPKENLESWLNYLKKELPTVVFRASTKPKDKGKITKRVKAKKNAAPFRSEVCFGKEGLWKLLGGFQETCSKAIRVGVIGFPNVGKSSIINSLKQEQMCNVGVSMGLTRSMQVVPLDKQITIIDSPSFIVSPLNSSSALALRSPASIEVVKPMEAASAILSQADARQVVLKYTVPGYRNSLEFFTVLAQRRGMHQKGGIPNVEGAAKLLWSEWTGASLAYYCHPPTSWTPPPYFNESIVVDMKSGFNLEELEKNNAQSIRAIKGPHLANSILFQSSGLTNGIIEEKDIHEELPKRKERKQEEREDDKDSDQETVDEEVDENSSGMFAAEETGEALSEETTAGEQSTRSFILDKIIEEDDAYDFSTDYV
# UniProt Q9BXJ9: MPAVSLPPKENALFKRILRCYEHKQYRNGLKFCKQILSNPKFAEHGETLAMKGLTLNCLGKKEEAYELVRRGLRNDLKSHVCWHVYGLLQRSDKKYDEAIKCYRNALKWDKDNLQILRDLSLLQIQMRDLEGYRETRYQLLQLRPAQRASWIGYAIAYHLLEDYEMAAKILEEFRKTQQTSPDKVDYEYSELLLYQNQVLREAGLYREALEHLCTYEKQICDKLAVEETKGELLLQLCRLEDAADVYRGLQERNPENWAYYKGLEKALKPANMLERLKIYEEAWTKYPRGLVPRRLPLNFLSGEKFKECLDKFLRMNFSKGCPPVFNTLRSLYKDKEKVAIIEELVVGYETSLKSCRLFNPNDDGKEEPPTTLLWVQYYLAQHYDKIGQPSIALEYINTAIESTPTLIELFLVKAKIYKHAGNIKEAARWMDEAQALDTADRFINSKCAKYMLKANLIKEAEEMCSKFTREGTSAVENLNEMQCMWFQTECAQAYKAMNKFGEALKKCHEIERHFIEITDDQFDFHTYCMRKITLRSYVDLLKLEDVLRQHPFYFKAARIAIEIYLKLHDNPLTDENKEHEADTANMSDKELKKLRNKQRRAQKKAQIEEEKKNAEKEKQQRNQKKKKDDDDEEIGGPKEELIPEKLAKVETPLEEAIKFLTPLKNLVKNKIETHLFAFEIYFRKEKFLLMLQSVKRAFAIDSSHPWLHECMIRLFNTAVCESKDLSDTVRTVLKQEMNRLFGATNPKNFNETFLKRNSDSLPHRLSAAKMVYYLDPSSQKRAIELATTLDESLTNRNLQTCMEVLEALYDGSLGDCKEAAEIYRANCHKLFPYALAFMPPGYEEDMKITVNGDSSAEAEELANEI
# UniProt Q9BVS4: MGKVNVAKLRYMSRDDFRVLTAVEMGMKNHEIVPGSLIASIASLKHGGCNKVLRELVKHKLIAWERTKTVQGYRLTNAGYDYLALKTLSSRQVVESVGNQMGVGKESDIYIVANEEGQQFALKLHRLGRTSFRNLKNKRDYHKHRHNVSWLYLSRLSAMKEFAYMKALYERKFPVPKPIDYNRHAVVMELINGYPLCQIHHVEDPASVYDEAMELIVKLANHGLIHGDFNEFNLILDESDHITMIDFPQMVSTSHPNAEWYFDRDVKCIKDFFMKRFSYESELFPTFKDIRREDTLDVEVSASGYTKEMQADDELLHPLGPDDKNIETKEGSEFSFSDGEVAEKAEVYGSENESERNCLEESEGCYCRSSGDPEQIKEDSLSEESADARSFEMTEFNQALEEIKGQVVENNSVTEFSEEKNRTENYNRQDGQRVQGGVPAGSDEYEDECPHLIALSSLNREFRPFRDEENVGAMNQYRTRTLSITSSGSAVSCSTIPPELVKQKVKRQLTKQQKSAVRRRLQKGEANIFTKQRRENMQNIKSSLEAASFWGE
# UniProt Q9BTY7: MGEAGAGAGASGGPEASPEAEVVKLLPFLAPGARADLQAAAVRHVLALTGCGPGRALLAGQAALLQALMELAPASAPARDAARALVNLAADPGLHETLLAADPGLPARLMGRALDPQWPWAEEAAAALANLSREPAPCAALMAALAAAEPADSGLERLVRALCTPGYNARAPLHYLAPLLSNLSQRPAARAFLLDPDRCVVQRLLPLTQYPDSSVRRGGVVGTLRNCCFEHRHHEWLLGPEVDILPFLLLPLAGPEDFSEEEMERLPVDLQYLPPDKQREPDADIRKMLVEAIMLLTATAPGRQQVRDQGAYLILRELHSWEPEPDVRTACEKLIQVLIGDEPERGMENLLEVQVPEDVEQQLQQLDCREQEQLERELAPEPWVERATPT
# UniProt Q9BRP1: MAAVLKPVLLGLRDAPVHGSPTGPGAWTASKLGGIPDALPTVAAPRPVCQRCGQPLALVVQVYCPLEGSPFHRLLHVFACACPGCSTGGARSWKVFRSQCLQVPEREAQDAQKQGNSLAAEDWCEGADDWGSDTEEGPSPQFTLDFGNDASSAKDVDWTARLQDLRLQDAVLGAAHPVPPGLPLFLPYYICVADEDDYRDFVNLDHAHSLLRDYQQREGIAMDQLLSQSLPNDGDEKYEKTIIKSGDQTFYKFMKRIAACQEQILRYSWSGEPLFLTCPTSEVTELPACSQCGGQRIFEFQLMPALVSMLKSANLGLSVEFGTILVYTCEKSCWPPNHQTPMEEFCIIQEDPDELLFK
# UniProt Q9BY77: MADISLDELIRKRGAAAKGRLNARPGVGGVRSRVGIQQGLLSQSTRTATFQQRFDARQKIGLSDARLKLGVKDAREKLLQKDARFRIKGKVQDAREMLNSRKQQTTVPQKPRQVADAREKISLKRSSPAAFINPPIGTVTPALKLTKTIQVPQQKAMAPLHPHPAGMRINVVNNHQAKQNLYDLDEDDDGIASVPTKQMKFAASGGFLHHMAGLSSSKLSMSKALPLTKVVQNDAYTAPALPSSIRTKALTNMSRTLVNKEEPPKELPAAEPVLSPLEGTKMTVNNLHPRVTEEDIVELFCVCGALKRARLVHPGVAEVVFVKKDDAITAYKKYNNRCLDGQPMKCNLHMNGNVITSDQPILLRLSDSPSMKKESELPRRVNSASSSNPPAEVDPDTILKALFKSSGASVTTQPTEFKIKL
# UniProt Q9C0B1, whole entry, looked up: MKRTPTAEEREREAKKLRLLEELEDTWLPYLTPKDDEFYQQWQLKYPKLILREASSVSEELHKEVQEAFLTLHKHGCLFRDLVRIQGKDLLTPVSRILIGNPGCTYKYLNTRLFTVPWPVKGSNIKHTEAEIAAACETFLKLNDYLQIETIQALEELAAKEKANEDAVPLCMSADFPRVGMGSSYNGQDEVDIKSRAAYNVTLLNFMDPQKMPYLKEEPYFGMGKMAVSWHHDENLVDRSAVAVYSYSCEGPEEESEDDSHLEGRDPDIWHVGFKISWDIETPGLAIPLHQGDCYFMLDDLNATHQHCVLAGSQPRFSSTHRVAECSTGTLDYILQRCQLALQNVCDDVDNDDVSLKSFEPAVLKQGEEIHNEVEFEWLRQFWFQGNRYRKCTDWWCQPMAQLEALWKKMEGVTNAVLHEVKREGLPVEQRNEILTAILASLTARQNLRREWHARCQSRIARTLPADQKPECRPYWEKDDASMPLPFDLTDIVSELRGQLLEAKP
# UniProt Q9BZ95: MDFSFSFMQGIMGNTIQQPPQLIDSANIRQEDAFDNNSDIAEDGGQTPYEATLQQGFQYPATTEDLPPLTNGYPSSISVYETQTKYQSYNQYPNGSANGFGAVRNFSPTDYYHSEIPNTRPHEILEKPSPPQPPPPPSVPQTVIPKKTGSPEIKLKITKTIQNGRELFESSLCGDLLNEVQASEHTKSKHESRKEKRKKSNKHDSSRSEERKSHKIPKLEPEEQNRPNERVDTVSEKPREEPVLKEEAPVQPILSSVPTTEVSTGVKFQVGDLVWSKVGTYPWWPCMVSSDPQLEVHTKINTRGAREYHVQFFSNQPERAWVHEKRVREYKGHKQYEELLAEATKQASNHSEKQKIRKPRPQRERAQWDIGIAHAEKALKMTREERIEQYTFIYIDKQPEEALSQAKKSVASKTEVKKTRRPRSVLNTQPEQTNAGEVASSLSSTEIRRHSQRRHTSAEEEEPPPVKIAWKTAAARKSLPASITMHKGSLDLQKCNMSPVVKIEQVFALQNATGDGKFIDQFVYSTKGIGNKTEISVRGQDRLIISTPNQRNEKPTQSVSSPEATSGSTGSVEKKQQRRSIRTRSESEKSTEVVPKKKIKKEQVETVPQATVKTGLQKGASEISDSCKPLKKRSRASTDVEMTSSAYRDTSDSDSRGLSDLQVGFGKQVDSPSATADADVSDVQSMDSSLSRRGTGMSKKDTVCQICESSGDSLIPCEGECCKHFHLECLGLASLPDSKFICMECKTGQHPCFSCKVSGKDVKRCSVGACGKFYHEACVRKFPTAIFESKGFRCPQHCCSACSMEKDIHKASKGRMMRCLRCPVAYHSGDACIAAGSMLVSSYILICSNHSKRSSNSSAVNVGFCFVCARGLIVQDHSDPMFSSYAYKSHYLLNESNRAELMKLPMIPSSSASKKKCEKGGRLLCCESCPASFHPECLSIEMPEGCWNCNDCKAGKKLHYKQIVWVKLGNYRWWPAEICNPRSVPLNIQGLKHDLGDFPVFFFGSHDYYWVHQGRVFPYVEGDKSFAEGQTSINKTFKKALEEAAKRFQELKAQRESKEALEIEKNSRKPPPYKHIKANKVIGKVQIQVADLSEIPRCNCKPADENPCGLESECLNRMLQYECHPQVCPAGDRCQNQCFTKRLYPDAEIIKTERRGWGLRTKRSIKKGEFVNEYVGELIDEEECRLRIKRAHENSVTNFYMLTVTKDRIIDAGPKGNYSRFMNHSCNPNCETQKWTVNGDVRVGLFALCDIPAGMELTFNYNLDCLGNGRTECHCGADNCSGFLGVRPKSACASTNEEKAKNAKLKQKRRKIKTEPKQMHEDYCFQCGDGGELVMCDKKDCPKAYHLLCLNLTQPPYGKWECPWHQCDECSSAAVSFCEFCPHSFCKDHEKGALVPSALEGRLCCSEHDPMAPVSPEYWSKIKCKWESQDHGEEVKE
# UniProt Q9BRJ6: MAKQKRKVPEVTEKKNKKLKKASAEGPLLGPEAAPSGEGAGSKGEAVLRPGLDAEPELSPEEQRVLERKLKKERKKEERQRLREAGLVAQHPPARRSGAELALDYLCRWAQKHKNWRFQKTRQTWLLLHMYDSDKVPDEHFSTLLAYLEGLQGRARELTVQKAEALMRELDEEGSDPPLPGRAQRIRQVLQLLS
# UniProt Q9BV68: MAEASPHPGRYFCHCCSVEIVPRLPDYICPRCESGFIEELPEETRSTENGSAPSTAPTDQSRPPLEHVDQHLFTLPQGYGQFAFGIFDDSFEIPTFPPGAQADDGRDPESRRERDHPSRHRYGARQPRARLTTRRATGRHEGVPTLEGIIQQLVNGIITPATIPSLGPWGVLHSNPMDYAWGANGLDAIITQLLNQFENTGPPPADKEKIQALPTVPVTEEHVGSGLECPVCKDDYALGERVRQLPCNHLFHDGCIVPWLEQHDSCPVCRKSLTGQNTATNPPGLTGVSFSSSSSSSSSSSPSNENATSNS
# UniProt Q9H204: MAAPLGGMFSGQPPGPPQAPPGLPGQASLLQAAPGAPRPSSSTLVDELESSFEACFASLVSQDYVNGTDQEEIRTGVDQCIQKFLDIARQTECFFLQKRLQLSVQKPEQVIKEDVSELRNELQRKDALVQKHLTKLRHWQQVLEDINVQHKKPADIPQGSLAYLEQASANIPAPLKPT
# This is a selection; strong and weak results do not stand in their true shares.
# Compound: COC(=O)C#Cc1ccccc1 [methyl 3-phenylpropiolate]
# Test: log2 ratio of iodoacetamide-alkyne labeling of the cysteine site, DMSO over compound (competition); higher = stronger covalent engagement of the cysteine by the compound, active = 1 or more
# Details: 500 µM; treatment time 1 h; system: HEK293T cell lysate
# In short: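 The log2 competition ratio per cysteine is defined as mean reporter intensity in control channels over mean reporter intensity in compound channels. Lysate from HEK293T cells (2 mg/mL) received electrophile (500 µM) or vehicle for 1 h at ambient temperature, followed by iodoacetamide alkyne for 1 h. Samples were clicked to sCIP-TMT reagents, pooled, trypsin-digested overnight at 37 °C, streptavidin-enriched, acid-eluted and run on Orbitrap Eclipse LC-MS/MS with FAIMS, with quantification in FragPipe. Three replicates with duplicate channels were used, and any cysteine quantified in only one replicate was excluded.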
row,Target,log2 ratio of iodoacetamide-alkyne labeling
1,UniProt Q9BRS8_C416,inactive: 0.832
2,TNKS1BP1 C1337 (UniProt Q9C0C2),active: 1.01
3,UniProt Q9BTE3_C3,inactive: 0.354
4,GNL3 C280 (UniProt Q9BVP2),inactive: 0.506
5,SETD2 C958 (UniProt Q9BYW2),active: 1.02
6,ADNP C31 (UniProt Q9H2P0),inactive: 0.0289
7,UniProt Q9C0B7_C360,inactive: 0.633
8,MRPL1 C279 (UniProt Q9BYD6),inactive: 0.338
9,UniProt Q9BXJ9_C721,inactive: 0.498
10,UniProt Q9BVS4_C449,active: 1.18
11,UniProt Q9BTY7_C199,inactive: -0.147
12,PDCD2L C278 (UniProt Q9BRP1),inactive: 0.0309
13,TANC1 C1651 (UniProt Q9C0D5),inactive: 0.345
14,POLDIP3 C346 (UniProt Q9BY77),inactive: -0.152
15,ANAPC1 C1412 (UniProt Q9H1A4),inactive: 0.0508
16,FTO C326 (UniProt Q9C0B1),inactive: 0.0865
17,NSD3 C1184 (UniProt Q9BZ95),inactive: -0.122
18,C7orf50 C107 (UniProt Q9BRJ6),inactive: 0.318
19,RNF126 C229 (UniProt Q9BV68),inactive: -0.457
20,DIDO1 C976 (UniProt Q9BTC0),inactive: 0.77
21,GPATCH1 C534 (UniProt Q9BRR8),inactive: 0.242
22,MED28 C80 (UniProt Q9H204),inactive: 0.36

# From entry 9 up to 10, copied from above:
row,Target,log2 ratio of iodoacetamide-alkyne labeling
9,UniProt Q9BXJ9_C721,inactive: 0.498
10,UniProt Q9BVS4_C449,active: 1.18
